From article PMC6203814
These are yes or no findings as the source states them, for the method shown. In cells and extracts the contact can be indirect. Some entries that bind do so weakly or less than the wild type. Sequences can lack the tags named with a protein.

Amino acid sequences for entries named in this document (tags omitted). Residues count along the entry.
UniProt Q8R4U0, residues 29-2559: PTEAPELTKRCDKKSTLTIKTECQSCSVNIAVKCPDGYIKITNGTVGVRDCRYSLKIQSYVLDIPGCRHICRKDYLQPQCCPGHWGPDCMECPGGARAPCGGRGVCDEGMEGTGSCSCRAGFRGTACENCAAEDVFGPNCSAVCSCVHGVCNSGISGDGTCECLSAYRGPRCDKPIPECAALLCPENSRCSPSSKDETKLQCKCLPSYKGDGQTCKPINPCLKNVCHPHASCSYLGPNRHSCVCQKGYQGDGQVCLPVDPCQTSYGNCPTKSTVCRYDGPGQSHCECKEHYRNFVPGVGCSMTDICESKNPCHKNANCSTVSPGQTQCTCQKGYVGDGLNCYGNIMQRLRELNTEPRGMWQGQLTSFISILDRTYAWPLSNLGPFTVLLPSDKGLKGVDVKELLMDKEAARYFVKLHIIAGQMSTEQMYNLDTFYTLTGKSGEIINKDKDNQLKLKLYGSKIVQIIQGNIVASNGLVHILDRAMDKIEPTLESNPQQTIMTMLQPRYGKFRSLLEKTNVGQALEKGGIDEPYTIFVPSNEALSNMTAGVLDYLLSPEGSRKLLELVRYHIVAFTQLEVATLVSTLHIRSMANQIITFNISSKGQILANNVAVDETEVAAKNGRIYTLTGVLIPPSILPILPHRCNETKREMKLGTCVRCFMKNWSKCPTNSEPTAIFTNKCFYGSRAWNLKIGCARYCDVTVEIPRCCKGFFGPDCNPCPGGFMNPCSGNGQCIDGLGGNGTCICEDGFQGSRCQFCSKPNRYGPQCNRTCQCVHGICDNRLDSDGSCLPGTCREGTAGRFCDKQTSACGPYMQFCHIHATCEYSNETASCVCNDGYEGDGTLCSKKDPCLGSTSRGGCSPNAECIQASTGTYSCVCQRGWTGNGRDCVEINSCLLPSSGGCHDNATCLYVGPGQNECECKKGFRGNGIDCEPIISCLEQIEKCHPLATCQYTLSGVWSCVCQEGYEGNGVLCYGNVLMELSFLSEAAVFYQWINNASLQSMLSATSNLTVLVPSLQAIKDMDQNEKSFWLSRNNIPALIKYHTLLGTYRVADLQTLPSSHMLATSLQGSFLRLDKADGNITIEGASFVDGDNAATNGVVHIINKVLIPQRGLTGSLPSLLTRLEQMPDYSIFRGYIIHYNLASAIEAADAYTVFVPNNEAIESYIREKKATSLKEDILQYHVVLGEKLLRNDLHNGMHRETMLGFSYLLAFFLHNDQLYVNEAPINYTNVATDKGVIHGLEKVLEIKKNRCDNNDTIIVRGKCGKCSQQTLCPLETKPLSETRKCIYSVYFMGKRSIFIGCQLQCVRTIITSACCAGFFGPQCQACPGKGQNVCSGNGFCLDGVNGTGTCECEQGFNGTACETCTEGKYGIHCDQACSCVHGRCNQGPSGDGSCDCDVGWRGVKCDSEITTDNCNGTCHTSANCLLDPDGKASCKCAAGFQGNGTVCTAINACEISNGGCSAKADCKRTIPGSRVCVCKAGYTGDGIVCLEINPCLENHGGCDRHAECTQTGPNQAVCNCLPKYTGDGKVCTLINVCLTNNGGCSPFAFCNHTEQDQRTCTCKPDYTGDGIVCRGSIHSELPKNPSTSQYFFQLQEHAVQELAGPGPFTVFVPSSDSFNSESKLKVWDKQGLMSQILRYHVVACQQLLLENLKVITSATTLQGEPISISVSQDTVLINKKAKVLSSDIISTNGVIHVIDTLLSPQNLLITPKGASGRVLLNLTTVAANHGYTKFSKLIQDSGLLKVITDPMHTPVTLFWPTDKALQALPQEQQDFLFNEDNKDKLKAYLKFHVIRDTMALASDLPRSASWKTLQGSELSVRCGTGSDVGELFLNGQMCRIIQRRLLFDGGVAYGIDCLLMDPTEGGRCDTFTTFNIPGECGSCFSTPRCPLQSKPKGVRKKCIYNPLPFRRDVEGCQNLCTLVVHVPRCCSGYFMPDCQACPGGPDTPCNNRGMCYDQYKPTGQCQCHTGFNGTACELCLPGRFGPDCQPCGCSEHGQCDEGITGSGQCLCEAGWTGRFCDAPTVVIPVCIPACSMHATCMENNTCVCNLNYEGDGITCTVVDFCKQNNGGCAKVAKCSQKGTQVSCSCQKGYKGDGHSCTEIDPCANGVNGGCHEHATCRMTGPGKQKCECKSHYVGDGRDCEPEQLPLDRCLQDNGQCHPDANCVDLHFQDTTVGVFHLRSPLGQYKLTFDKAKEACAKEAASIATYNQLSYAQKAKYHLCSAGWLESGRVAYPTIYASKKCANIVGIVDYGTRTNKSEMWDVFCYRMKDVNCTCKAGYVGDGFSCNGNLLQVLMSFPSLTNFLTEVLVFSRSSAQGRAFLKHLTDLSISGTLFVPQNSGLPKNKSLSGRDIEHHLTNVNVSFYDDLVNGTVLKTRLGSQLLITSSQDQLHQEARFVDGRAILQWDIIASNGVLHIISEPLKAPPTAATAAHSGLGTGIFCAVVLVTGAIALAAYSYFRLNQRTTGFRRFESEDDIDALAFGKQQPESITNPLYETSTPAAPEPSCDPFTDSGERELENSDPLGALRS
UniProt Q8WWQ8, residues 20-2551: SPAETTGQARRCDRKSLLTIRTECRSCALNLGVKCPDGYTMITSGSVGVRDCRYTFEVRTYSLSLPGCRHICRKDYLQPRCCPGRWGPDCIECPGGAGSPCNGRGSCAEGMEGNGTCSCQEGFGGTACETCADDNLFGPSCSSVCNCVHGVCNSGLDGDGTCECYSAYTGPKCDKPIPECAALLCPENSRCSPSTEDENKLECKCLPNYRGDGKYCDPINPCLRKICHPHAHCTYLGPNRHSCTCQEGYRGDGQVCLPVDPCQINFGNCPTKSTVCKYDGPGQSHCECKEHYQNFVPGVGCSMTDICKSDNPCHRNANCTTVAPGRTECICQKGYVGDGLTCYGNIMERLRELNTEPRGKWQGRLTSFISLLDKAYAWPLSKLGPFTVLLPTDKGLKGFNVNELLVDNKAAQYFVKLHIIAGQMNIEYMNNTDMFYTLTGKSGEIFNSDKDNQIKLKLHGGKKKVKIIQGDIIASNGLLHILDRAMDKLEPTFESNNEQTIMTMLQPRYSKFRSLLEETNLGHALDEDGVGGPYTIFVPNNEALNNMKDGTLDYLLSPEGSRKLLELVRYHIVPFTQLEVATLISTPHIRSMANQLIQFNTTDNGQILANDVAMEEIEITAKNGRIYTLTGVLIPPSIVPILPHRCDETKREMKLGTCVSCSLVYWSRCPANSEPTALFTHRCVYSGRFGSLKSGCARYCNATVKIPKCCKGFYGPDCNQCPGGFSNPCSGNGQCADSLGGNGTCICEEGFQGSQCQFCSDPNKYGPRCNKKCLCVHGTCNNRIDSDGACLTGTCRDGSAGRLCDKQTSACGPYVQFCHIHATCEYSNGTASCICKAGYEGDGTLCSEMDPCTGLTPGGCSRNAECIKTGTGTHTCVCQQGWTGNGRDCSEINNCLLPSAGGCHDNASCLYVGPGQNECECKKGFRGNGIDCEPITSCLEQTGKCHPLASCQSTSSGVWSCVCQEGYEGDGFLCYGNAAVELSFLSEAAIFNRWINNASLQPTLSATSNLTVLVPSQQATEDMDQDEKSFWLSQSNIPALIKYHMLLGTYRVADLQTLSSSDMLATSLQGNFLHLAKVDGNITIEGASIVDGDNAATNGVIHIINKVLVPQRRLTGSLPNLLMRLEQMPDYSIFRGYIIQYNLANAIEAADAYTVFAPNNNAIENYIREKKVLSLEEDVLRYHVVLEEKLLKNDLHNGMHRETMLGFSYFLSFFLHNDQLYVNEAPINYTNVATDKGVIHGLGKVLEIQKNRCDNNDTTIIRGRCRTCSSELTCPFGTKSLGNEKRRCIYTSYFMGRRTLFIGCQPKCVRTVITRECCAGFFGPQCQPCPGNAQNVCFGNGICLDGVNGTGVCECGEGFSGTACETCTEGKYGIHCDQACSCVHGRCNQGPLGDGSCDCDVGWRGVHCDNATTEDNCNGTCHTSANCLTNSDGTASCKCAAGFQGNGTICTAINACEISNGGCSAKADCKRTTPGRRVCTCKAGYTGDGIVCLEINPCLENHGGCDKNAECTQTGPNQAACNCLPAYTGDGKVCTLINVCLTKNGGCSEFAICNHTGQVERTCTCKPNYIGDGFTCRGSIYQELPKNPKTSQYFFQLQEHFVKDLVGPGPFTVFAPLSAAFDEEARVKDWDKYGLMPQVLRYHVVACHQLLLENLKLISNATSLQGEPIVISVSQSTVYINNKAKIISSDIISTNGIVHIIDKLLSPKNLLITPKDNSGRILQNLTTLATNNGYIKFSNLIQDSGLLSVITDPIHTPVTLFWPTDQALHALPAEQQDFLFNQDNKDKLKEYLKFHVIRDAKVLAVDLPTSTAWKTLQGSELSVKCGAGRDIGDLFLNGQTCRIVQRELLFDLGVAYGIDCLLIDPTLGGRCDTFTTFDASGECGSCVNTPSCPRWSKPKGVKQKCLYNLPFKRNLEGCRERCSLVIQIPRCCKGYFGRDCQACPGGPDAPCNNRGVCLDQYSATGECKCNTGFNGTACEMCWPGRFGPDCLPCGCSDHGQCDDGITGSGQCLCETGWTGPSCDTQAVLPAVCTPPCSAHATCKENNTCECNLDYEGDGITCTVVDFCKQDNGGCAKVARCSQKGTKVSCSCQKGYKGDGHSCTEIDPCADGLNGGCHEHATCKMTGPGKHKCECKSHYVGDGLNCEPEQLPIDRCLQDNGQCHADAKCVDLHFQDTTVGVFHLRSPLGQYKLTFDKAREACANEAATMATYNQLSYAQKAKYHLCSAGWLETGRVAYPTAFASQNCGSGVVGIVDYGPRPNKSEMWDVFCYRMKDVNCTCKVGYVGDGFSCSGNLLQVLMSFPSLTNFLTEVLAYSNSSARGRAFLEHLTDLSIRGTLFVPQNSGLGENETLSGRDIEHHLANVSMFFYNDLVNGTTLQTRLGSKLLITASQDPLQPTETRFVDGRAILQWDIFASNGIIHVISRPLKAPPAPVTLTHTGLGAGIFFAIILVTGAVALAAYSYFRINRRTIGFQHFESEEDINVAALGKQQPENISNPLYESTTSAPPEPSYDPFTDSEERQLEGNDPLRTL

Experiments:
[1] = molecular target: T1, Full length human Flag-BAI3-mVenus (human) (UniProt O60242); assay: proximity ligation; C2C12 transfected with tracer amounts of Flag-BAI3, differentiated 24 h, fixed; anti-Flag (M2) and anti-Stabilin-2 antibodies, Duolink PLA
T1 sequence: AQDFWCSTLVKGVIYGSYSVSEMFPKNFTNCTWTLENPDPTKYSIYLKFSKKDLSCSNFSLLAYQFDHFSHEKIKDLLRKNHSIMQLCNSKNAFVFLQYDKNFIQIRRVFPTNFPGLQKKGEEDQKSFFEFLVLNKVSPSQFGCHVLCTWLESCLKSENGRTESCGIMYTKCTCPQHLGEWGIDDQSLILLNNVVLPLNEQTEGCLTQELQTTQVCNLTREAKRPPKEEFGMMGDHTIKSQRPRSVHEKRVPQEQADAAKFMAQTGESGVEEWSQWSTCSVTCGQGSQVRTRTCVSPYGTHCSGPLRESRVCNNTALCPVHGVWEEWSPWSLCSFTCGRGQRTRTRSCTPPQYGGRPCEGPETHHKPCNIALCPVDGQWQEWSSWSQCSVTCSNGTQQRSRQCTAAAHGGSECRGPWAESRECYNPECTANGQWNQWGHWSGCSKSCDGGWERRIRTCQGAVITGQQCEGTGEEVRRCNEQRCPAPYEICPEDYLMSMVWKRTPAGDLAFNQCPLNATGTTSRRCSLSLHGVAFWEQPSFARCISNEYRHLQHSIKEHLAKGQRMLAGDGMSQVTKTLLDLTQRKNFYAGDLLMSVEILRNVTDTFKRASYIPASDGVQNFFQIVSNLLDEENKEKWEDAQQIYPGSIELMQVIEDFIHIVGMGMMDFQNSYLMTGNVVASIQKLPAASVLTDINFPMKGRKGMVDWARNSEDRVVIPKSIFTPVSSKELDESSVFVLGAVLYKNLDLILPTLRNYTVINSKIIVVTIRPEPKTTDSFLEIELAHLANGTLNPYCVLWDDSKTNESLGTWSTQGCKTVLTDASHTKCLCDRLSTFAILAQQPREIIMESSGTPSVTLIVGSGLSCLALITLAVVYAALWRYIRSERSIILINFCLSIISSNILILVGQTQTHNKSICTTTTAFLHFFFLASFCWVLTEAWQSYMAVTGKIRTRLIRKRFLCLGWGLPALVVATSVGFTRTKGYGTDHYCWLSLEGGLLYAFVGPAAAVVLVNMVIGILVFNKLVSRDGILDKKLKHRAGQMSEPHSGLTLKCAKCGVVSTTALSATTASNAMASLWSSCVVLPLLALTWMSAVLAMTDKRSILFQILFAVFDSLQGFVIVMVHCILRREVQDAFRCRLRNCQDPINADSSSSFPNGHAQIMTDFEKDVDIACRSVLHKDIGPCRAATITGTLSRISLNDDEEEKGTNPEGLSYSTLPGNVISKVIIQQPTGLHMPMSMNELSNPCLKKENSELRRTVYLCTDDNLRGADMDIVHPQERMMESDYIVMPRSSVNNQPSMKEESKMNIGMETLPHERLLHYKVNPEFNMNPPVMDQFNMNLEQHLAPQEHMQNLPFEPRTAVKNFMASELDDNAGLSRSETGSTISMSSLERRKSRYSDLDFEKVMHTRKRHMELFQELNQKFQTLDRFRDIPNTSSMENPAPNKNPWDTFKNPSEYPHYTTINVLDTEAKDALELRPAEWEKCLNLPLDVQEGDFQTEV

[2] = molecular target: T1, Full length human Flag-BAI3-mVenus (human); assay: co-IP; HEK293T or C2C12 cells expressing V5-Stabilin-2 and a Flag-BAI3 form, lysed in 150 mM NaCl, 50 mM Tris pH 7.5, 1% Nonidet-P40; 500 μg extract, antibody and Protein-A agarose 90 min, three washes

Row | Substance | binding [1] | binding [2]
1 | endogenous Stabilin-2 (from UniProt Q8R4U0 29-2559) (receptor) | binds | 
2 | full length V5-Stabilin-2 (from UniProt Q8WWQ8 20-2551) (receptor) |  | binds
